Binding data for 6 molecules are collected here from article doi:10.1101/2023.03.06.531310.

Amino acid sequences for entries named in this document (tags omitted).
UniProt Q9DB52: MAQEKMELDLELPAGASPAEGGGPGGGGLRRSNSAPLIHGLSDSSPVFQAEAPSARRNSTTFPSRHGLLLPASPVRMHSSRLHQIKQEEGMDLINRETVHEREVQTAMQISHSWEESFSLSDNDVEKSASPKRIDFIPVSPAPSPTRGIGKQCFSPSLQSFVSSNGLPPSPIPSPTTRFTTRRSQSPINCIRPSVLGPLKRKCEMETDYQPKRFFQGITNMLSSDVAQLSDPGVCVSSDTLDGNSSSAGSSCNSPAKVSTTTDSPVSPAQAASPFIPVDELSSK

In one assay the target is T1, Myc-B55α C239G (UniProt P63151).
T1 sequence: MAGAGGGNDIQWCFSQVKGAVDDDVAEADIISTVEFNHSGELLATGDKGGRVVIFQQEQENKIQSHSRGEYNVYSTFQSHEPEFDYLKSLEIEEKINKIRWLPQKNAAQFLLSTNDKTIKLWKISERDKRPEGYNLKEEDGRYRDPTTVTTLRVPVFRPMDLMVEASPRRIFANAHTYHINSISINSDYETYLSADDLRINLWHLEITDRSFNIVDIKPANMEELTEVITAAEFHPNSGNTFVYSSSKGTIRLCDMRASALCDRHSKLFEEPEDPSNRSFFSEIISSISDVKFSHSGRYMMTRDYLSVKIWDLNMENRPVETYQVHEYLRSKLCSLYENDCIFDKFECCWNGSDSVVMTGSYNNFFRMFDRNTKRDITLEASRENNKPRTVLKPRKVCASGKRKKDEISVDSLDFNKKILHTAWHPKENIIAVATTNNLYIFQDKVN
Description: co-IP.

The target in another assay is T2, Myc-B55α wild type (UniProt P63151).
T2 sequence: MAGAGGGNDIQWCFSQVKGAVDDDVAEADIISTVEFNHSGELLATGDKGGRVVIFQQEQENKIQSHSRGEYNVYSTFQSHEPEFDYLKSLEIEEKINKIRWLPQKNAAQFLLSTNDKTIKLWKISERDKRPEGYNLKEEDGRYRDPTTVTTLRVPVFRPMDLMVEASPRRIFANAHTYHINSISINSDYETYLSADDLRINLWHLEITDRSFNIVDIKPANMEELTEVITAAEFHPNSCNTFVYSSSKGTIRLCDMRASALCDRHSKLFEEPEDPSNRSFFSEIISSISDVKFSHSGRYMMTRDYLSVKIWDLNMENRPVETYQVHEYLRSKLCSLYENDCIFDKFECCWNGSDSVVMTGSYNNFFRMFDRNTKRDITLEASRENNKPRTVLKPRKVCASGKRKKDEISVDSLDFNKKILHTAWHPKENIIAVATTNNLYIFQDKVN
In words: co-IP.

Assay [1] addresses FLAG-FAM122A wild type (murine) (mouse), Q9DB52. In words: co-IP. As to conditions: remark: other sources report otherwise.
Assay [2] concerns the target FLAG-FAM122A wild type (murine) (mouse) (UniProt Q9DB52). Description: co-IP.
Another assay concerns the target FAM122A-C-FAST10 (UniProt Q9DB52). Description: split reporter.

No constants are given. Whether binding was seen depends on the method and setting. In cells and extracts the contact can be indirect. Some entries that bind do so weakly or less than the wild type. For part of these data: Sequences can lack the tags named with a protein.

B1: p107 substrate (Suppl. Fig. 3) (protein, UniProt P28749 1-1068)
chain: MFEDKPHAEGAAVVAAAGEALQALCQELNLDEGSAAEALDDFTAIRGNYSLEGEVTHWLACSLYVACRKSIIPTVGKGIMEGNCVSLTRILRSAKLSLIQFFSKMKKWMDMSNLPQEFRERIERLERNFEVSTVIFKKYEPIFLDIFQNPYEEPPKLPRSRKQRRIPCSVKDLFNFCWTLFVYTKGNFRMIGDDLVNSYHLLLCCLDLIFANAIMCPNRQDLLNPSFKGLPSDFHTADFTASEEPPCIIAVLCELHDGLLVEAKGIKEHYFKPYISKLFDRKILKGECLLDLSSFTDNSKAVNKEYEEYVLTVGDFDERIFLGADAEEEIGTPRKFTRDTPLGKLTAQANVEYNLQQHFEKKRSFAPSTPLTGRRYLREKEAVITPVASATQSVSRLQSIVAGLKNAPSDQLINIFESCVRNPVENIMKILKGIGETFCQHYTQSTDEQPGSHIDFAVNRLKLAEILYYKILETVMVQETRRLHGMDMSVLLEQDIFHRSLMACCLEIVLFAYSSPRTFPWIIEVLNLQPFYFYKVIEVVIRSEEGLSRDMVKHLNSIEEQILESLAWSHDSALWEALQVSANKVPTCEEVIFPNNFETGNGGNVQGHLPLMPMSPLMHPRVKEVRTDSGSLRRDMQPLSPISVHERYSSPTAGSAKRRLFGEDPPKEMLMDKIITEGTKLKIAPSSSITAENVSILPGQTLLTMATAPVTGTTGHKVTIPLHGVANDAGEITLIPLSMNTNQESKVKSPVSLTAHSLIGASPKQTNLTKAQEVHSTGINRPKRTGSLALFYRKVYHLASVRLRDLCLKLDVSNELRRKIWTCFEFTLVHCPDLMKDRHLDQLLLCAFYIMAKVTKEERTFQEIMKSYRNQPQANSHVYRSVLLKSIPREVVAYNKNINDDFEMIDCDLEDATKTPDCSSGPVKEERGDLIKFYNTIYVGRVKSFALKYDLANQDHMMDAPPLSPFPHIKQQPGSPRRISQQHSIYISPHKNGSGLTPRSALLYKFNGSPSKSLKDINNMIRQGEQRTKKRVIAIDSDAESPAKRVCQENDDVLLKRLQDVVSERANH
For the molecule B1, the binding entry in the assay with Myc-B55α C239G is “binds”.

B2: FLAG-p107 (protein, UniProt P28749 1-1068)
chain: MFEDKPHAEGAAVVAAAGEALQALCQELNLDEGSAAEALDDFTAIRGNYSLEGEVTHWLACSLYVACRKSIIPTVGKGIMEGNCVSLTRILRSAKLSLIQFFSKMKKWMDMSNLPQEFRERIERLERNFEVSTVIFKKYEPIFLDIFQNPYEEPPKLPRSRKQRRIPCSVKDLFNFCWTLFVYTKGNFRMIGDDLVNSYHLLLCCLDLIFANAIMCPNRQDLLNPSFKGLPSDFHTADFTASEEPPCIIAVLCELHDGLLVEAKGIKEHYFKPYISKLFDRKILKGECLLDLSSFTDNSKAVNKEYEEYVLTVGDFDERIFLGADAEEEIGTPRKFTRDTPLGKLTAQANVEYNLQQHFEKKRSFAPSTPLTGRRYLREKEAVITPVASATQSVSRLQSIVAGLKNAPSDQLINIFESCVRNPVENIMKILKGIGETFCQHYTQSTDEQPGSHIDFAVNRLKLAEILYYKILETVMVQETRRLHGMDMSVLLEQDIFHRSLMACCLEIVLFAYSSPRTFPWIIEVLNLQPFYFYKVIEVVIRSEEGLSRDMVKHLNSIEEQILESLAWSHDSALWEALQVSANKVPTCEEVIFPNNFETGNGGNVQGHLPLMPMSPLMHPRVKEVRTDSGSLRRDMQPLSPISVHERYSSPTAGSAKRRLFGEDPPKEMLMDKIITEGTKLKIAPSSSITAENVSILPGQTLLTMATAPVTGTTGHKVTIPLHGVANDAGEITLIPLSMNTNQESKVKSPVSLTAHSLIGASPKQTNLTKAQEVHSTGINRPKRTGSLALFYRKVYHLASVRLRDLCLKLDVSNELRRKIWTCFEFTLVHCPDLMKDRHLDQLLLCAFYIMAKVTKEERTFQEIMKSYRNQPQANSHVYRSVLLKSIPREVVAYNKNINDDFEMIDCDLEDATKTPDCSSGPVKEERGDLIKFYNTIYVGRVKSFALKYDLANQDHMMDAPPLSPFPHIKQQPGSPRRISQQHSIYISPHKNGSGLTPRSALLYKFNGSPSKSLKDINNMIRQGEQRTKKRVIAIDSDAESPAKRVCQENDDVLLKRLQDVVSERANH
For B2, in the assay with Myc-B55α wild type, the binding result is recorded as “binds”.

B3: Myc-B55α L225A, P63151 1-447 (protein)
chain: MAGAGGGNDIQWCFSQVKGAVDDDVAEADIISTVEFNHSGELLATGDKGGRVVIFQQEQENKIQSHSRGEYNVYSTFQSHEPEFDYLKSLEIEEKINKIRWLPQKNAAQFLLSTNDKTIKLWKISERDKRPEGYNLKEEDGRYRDPTTVTTLRVPVFRPMDLMVEASPRRIFANAHTYHINSISINSDYETYLSADDLRINLWHLEITDRSFNIVDIKPANMEEATEVITAAEFHPNSCNTFVYSSSKGTIRLCDMRASALCDRHSKLFEEPEDPSNRSFFSEIISSISDVKFSHSGRYMMTRDYLSVKIWDLNMENRPVETYQVHEYLRSKLCSLYENDCIFDKFECCWNGSDSVVMTGSYNNFFRMFDRNTKRDITLEASRENNKPRTVLKPRKVCASGKRKKDEISVDSLDFNKKILHTAWHPKENIIAVATTNNLYIFQDKVN
With B3, the binding result in assay [1] was “binds”.

B4: Myc-B55α D197K (protein, UniProt P63151 1-447)
chain: MAGAGGGNDIQWCFSQVKGAVDDDVAEADIISTVEFNHSGELLATGDKGGRVVIFQQEQENKIQSHSRGEYNVYSTFQSHEPEFDYLKSLEIEEKINKIRWLPQKNAAQFLLSTNDKTIKLWKISERDKRPEGYNLKEEDGRYRDPTTVTTLRVPVFRPMDLMVEASPRRIFANAHTYHINSISINSDYETYLSADKLRINLWHLEITDRSFNIVDIKPANMEELTEVITAAEFHPNSCNTFVYSSSKGTIRLCDMRASALCDRHSKLFEEPEDPSNRSFFSEIISSISDVKFSHSGRYMMTRDYLSVKIWDLNMENRPVETYQVHEYLRSKLCSLYENDCIFDKFECCWNGSDSVVMTGSYNNFFRMFDRNTKRDITLEASRENNKPRTVLKPRKVCASGKRKKDEISVDSLDFNKKILHTAWHPKENIIAVATTNNLYIFQDKVN
For B4, in assay [2], the binding entry is listed as “no binding”.

B5: Myc-B55α C239G (protein, UniProt P63151 1-447)
chain: MAGAGGGNDIQWCFSQVKGAVDDDVAEADIISTVEFNHSGELLATGDKGGRVVIFQQEQENKIQSHSRGEYNVYSTFQSHEPEFDYLKSLEIEEKINKIRWLPQKNAAQFLLSTNDKTIKLWKISERDKRPEGYNLKEEDGRYRDPTTVTTLRVPVFRPMDLMVEASPRRIFANAHTYHINSISINSDYETYLSADDLRINLWHLEITDRSFNIVDIKPANMEELTEVITAAEFHPNSGNTFVYSSSKGTIRLCDMRASALCDRHSKLFEEPEDPSNRSFFSEIISSISDVKFSHSGRYMMTRDYLSVKIWDLNMENRPVETYQVHEYLRSKLCSLYENDCIFDKFECCWNGSDSVVMTGSYNNFFRMFDRNTKRDITLEASRENNKPRTVLKPRKVCASGKRKKDEISVDSLDFNKKILHTAWHPKENIIAVATTNNLYIFQDKVN
Turning to B5, the binding result in assay [2] is listed as “binds”.

B6: B55α-N-FAST (protein, UniProt P63151 1-447)
chain: MAGAGGGNDIQWCFSQVKGAVDDDVAEADIISTVEFNHSGELLATGDKGGRVVIFQQEQENKIQSHSRGEYNVYSTFQSHEPEFDYLKSLEIEEKINKIRWLPQKNAAQFLLSTNDKTIKLWKISERDKRPEGYNLKEEDGRYRDPTTVTTLRVPVFRPMDLMVEASPRRIFANAHTYHINSISINSDYETYLSADDLRINLWHLEITDRSFNIVDIKPANMEELTEVITAAEFHPNSCNTFVYSSSKGTIRLCDMRASALCDRHSKLFEEPEDPSNRSFFSEIISSISDVKFSHSGRYMMTRDYLSVKIWDLNMENRPVETYQVHEYLRSKLCSLYENDCIFDKFECCWNGSDSVVMTGSYNNFFRMFDRNTKRDITLEASRENNKPRTVLKPRKVCASGKRKKDEISVDSLDFNKKILHTAWHPKENIIAVATTNNLYIFQDKVN
As for B6, in the assay with FAM122A-C-FAST10, the binding entry is reported as “binds”.
